Experimental data published in publication PMC3869376.
Residue numbers refer to the chain shown, from its start. Numbers in names are those of the source. Results are given in words; binding and its absence hold for the method and conditions named. In cells and extracts the contact can be indirect. Some entries that bind do so weakly or less than the wild type. Where a sequence is shown, tags or fusion partners need not be part of it. Blank lines part the entries; values can stand above or below the binder they belong to.

Protein sequences, listed by entry. Tags and fused reporters are not part of them.
UniProt Q13370: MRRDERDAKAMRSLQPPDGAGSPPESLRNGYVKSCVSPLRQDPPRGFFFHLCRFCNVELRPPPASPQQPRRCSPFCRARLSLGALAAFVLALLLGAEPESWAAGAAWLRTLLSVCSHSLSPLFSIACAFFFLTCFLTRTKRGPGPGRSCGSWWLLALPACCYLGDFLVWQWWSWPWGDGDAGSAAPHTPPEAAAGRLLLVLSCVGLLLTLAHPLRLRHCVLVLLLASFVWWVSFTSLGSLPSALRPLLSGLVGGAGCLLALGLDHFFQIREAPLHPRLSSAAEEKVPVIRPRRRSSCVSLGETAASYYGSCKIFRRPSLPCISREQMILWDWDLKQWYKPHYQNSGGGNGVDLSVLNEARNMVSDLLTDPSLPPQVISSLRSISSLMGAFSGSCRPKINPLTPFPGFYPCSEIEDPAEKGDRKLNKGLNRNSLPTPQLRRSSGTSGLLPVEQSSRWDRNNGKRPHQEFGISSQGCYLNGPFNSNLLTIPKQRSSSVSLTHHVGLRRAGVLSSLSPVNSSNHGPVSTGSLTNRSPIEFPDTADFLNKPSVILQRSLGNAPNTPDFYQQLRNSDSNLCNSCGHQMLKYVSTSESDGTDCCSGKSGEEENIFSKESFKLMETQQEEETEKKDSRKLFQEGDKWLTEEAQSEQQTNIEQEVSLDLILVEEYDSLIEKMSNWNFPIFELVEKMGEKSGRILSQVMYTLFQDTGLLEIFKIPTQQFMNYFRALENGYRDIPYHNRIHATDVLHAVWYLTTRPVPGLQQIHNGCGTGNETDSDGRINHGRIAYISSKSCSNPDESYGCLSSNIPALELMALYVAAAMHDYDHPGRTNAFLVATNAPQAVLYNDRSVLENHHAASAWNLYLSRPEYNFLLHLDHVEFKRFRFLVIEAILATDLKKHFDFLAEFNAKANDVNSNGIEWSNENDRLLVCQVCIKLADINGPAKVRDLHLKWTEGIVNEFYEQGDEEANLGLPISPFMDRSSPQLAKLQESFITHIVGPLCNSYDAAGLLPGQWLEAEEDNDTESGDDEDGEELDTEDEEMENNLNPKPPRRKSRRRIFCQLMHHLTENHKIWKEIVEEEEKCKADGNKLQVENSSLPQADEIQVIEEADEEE

Biological target: HA-PDE3B (human), not phosphorylated by active TBK1 (human) (UniProt Q13370)
Assay: co-IP; anti-HA immunoprecipitation from HEK293T cells co-expressing HA-PDE3B with a Flag-tagged kinase or its K38A mutant; immunoblot

binding: binds
B1: Flag-TBK1 K38A (kinase-inactive) (enzyme, UniProt Q9UHD2 1-729)
chain: MQSTSNHLWLLSDILGQGATANVFRGRHKKTGDLFAIAVFNNISFLRPVDVQMREFEVLKKLNHKNIVKLFAIEEETTTRHKVLIMEFCPCGSLYTVLEEPSNAYGLPESEFLIVLRDVVGGMNHLRENGIVHRDIKPGNIMRVIGEDGQSVYKLTDFGAARELEDDEQFVSLYGTEEYLHPDMYERAVLRKDHQKKYGATVDLWSIGVTFYHAATGSLPFRPFEGPRRNKEVMYKIITGKPSGAISGVQKAENGPIDWSGDMPVSCSLSRGLQVLLTPVLANILEADQEKCWGFDQFFAETSDILHRMVIHVFSLQQMTAHKIYIHSYNTATIFHELVYKQTKIISSNQELIYEGRRLVLEPGRLAQHFPKTTEENPIFVVSREPLNTIGLIYEKISLPKVHPRYDLDGDASMAKAITGVVCYACRIASTLLLYQELMRKGIRWLIELIKDDYNETVHKKTEVVITLDFCIRNIEKTVKVYEKLMKINLEAAELGEISDIHTKLLRLSSSQGTIETSLQDIDSRLSPGGSLADAWAHQEGTHPKDRNVEKLQVLLNCMTEIYYQFKKDKAERRLAYNEEQIHKFDKQKLYYHATKAMTHFTDECVKKYEAFLNKSEEWIRKMLHLRKQLLSLTNQCFDIEEEVSKYQEYTNELQETLPQKMFTASSGIKHTMTPIYPSSNTLVEMTLGMKKLKEEMEGVVKELAENNHILERFGSLTMDGGLRNVDCL

binding: binds weakly
B2: Flag-TBK1 (wild type) (enzyme, UniProt Q9UHD2 1-729)
chain: B1 chain with A38K
